From publication PMC7284125, “Identification of annotated bioactive molecules that impair motility of the blood fluke Schistosoma mansoni” (International Journal for Parasitology: Drugs and Drug …, 2020) come the findings set out here.

The chains behind the UniProt entries cited, without tags or fusion partners.
UniProt G4LUJ1, entry or part of it: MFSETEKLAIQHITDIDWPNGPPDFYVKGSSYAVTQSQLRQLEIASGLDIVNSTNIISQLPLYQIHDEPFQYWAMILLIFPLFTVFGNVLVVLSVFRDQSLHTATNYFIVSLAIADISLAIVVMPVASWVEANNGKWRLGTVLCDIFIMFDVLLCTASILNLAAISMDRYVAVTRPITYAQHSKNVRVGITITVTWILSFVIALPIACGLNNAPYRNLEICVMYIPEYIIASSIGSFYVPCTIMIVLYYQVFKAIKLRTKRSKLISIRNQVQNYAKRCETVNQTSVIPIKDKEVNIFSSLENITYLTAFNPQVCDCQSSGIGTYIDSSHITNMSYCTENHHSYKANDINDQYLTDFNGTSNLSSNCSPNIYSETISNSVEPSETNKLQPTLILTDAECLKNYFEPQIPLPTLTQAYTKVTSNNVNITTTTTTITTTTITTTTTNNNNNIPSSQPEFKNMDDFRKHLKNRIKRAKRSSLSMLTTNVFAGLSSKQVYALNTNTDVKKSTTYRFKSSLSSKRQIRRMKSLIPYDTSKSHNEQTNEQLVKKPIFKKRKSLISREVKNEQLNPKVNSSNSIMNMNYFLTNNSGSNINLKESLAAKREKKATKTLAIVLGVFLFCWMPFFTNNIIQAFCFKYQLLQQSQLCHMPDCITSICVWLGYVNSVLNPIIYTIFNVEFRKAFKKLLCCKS

Structures are written as SMILES.

One may read the IC50 as the concentration needed to halve the response being measured. A higher IC50 goes with weaker potency in that assay.

The target of this experiment is SmD2 (Schistosoma mansoni, UniProt G4LUJ1). In words: cell-based.

In turn, `O=C1CCc2ccc(OCCCCN3CCN(c4cccc(Cl)c4Cl)CC3)cc2N1` [Aripiprazole] showed an IC50 of 3.75 µM.

`O=C(CCCN1CCC(O)(c2ccc(Cl)cc2)CC1)c1ccc(F)cc1` [haloperidol] gave an IC50 of 24.3 µM.
